From article PMC12697862 come the findings set out here.

By UniProt entry, the sequences of proteins in these tests, tags left out. Residues count along the entry.
UniProt P38647, residues 47-679: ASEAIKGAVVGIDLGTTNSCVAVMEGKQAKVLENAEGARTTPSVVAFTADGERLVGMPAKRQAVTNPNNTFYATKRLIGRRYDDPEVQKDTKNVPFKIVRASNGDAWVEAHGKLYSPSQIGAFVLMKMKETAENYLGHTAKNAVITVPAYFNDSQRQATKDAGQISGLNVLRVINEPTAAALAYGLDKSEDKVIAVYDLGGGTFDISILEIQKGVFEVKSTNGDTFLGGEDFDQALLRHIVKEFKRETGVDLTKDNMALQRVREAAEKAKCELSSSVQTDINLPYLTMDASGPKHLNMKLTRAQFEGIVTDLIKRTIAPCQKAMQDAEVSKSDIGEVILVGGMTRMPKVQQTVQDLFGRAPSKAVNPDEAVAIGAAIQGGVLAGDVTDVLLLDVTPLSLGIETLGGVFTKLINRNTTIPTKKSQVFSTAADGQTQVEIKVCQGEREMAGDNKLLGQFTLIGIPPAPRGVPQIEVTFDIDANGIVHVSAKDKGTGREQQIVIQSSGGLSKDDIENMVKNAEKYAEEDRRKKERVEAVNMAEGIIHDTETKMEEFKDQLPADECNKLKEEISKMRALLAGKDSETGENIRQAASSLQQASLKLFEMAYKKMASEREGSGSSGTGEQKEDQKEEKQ

The test concerns the target T1, His tagged murine GCN5L1 (mouse) (UniProt O55102).
T1 sequence: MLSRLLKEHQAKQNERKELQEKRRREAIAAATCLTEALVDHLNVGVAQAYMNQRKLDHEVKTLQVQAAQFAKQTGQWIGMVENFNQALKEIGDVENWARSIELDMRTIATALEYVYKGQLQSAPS
The experiment in a line: affinity purification with mass spectrometry; His tagged murine GCN5L1 purified from E. coli incubated with liver mitochondrial extract, analysis with MS; only the target purified.

These are yes or no findings as the source states them, for the method shown. Binding seen in cells or lysates may run through a third protein. A yes stands for co-enrichment or nearness to the bait. Other partners may have been found. Tags and fused reporters may be left off the sequences shown.

Consider “GRP75, endogenous in mouse liver (from UniProt P38647 47-679)”, for which the binding result is listed as “binds”.
